# Assay results taken from paper PMC3371017.
# Amino acid sequences for entries named in this document (tags omitted). A change or cut given only in a name is not applied to a line headed by its entry.
# UniProt Q04206: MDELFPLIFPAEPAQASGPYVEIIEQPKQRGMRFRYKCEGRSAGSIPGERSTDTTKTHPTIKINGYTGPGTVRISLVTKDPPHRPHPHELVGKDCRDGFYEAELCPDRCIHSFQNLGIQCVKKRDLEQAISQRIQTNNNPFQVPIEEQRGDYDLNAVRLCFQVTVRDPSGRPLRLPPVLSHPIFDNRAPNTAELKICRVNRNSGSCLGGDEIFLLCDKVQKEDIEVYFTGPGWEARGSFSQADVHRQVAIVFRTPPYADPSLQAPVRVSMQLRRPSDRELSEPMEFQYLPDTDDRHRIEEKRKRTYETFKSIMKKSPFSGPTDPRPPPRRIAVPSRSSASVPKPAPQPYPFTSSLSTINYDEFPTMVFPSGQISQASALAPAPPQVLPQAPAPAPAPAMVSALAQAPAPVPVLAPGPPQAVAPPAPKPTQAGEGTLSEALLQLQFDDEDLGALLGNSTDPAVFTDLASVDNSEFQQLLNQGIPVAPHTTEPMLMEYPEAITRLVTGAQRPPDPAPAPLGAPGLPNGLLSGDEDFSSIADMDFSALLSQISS
# UniProt Q13547: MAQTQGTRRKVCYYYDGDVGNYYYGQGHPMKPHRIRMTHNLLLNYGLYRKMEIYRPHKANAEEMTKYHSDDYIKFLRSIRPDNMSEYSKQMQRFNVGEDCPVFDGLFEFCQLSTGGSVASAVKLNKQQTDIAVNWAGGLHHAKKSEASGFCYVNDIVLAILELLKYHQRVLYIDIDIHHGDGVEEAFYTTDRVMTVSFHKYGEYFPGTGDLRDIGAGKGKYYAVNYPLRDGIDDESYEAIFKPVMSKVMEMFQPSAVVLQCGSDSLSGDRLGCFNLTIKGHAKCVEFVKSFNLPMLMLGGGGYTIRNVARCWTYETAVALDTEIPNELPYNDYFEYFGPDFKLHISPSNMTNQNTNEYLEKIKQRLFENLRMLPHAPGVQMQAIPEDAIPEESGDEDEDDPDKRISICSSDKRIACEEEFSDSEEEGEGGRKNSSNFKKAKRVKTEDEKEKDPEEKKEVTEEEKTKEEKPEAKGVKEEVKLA
# No constants are given. Whether binding was seen depends on the method and setting. In cells and extracts the contact can be indirect. Some binding calls cover weakened binding; strength is not graded here. For part of these data: Sequences can lack the tags named with a protein.
# How the values were obtained:
# [1] = molecular target: T1, GST-ATM(1–247) fusion protein (UniProt Q13315); test: pull-down; GST or GST-ATM(1-247) on glutathione agarose beads, incubated 2 hours at 4°C with pre-cleared lysate of HEK-293 cells transfected with pCMV-HA p65 wt; LB buffer (50 mM Tris HCl, 150 mM NaCl, 2 mM EDTA, 1% NP-40, 10% glycerol, pH 8.00); p65 detected by immunoblotting; only the target purified
# T1 sequence: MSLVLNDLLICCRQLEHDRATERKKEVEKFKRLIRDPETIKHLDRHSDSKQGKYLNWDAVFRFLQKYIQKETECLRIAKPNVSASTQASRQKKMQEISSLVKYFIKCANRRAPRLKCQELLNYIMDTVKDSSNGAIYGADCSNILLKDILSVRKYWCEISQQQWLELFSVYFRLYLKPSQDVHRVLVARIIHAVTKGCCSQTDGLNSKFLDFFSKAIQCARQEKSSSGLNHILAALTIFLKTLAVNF
# HA-p65 S547A (human) = HA-p65 S547A (human) (UniProt Q04206); test: co-IP; HA-p65 wt or S547A immunoprecipitated with HA antibody from lysates of transfected HEK-293 cells after 5 hours of etoposide treatment; IPLS buffer (20 mM Tris HCl, 120 mM NaCl, 0.5 mM EDTA, 0.5% NP40, 10% glycerol, pH 7,5), 4°C; co-immunoprecipitated HDAC1 detected by western blotting
# HA-p65 wild type (human) = HA-p65 wild type (human) (UniProt Q04206); test: as above
binding [1],binding (HA-p65 S547A (human)),binding (HA-p65 wild type (human)),Substance
binds,,,HA-p65 wild type (from UniProt Q04206 1-551)
,no binding,binds,HDAC1 (from UniProt Q13547 1-482) (enzyme)
